Results from the supplement of paper PMC10331698.
± gives the standard deviation of the averaged measurements. Most values lie at the level of the controls, where differences are scatter.

Assays:
Test in all cases: level (log10 ratio to DMSO vehicle control); higher = higher biomarker level / cell amount than vehicle control
[1] = compound: O=C(O)C(F)(F)OC(F)(F)C(F)(F)OC(F)(F)C(F)(F)C(F)(F)C(F)(F)F [Perfluoro-3,6-dioxadecanoic acid]; settings: 2200 nM; in DMSO
Protocol: (§1)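 BioMAP Diversity Plus panel of 12 human primary cell co-culture systems (3C, 4H, LPS, SAg, BT, BF4T, BE3C, CASM3C, HDF3CGF, KF3CT, MyoF, Mphg). Compounds were added 1 h before stimulation and left for 24 h (MyoF 48 h; BT 72 h for soluble read-outs or 6 d for IgG). Biomarkers were read by ELISA, cytotoxicity by SRB, PBMC viability and proliferation by Alamar Blue. Each well value was divided by the mean of 8 DMSO control wells on the same plate and log10 transformed; duplicate blinded samples were tested at 4 concentrations.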

[2] = compound: O=C(O)C(F)(F)C(F)(F)OC(F)(F)F [Perfluoro-3-methoxypropanoic acid]; settings: 2200 nM; in DMSO
Protocol: as §1

[3] = compound: O=C(O)C(F)(F)C(F)(F)C(F)(F)C(F)(F)C(F)(F)C(F)(F)C(F)(F)C(F)F [9-H-Perfluorononanoic acid]; settings: 2200 nM; in DMSO
Protocol: as §1

[4] = compound: O=C(O)C=CC(F)(C(F)(F)F)C(F)(F)F [3-(Perfluoroisopropyl)-2-propenoic acid]; settings: in DMSO
Protocol: as §1

[5] = compound: OCCC(F)(F)C(F)(F)C(F)(F)C(F)(F)C(F)(F)C(F)(F)C(F)(F)C(F)(F)F [8:2 Fluorotelomer alcohol]; settings: 2200 nM; in DMSO
Protocol: as §1

[6] = compound: FC(F)C(F)(F)COCC1CO1 [((2,2,3,3-Tetrafluoropropoxy)methyl)oxirane]; settings: 2200 nM; in DMSO
Protocol: as §1

[7] = compound: C=CC(=O)OCC(F)(F)C(F)(F)C(F)(F)C(F)(F)COC(=O)C=C [1H,1H,6H,6H-Perfluorohexane-1,6-diol diacrylate]; settings: 2200 nM; in DMSO
Protocol: as §1

[8] = compound: O=C(O)C(F)(F)OC(F)(F)C(F)(F)OC(F)(F)C(=O)O [Perfluoro-3,6-dioxaoctane-1,8-dioic acid]; settings: 2200 nM; in DMSO
Protocol: as §1

[9] = compound: C=C(C)C(=O)OCC(F)(F)C(F)(F)C(F)(F)F [2,2,3,3,4,4,4-Heptafluorobutyl methacrylate]; settings: 2200 nM; in DMSO
Protocol: as §1

Perfluorooctanamide = compound: NC(=O)C(F)(F)C(F)(F)C(F)(F)C(F)(F)C(F)(F)C(F)(F)C(F)(F)F [Perfluorooctanamide]; settings: 2200 nM; in DMSO
Protocol: as §1

[10] = compound: FC(F)(F)C(F)(F)C(F)(F)C(F)(F)C(F)(F)C(F)(F)C(F)(F)CCI [1-Iodo-1H,1H,2H,2H-perfluorononane]; settings: in DMSO
Protocol: as §1

[11] = compound: O=S(=O)(Cl)C(F)(F)C(F)(F)C(F)(F)C(F)(F)C(F)(F)C(F)(F)C(F)(F)C(F)(F)F [Perfluoro-1-octanesulfonyl chloride]; settings: 2200 nM; in DMSO
Protocol: as §1

Perfluoropropanoic acid = compound: O=C(O)C(F)(F)C(F)(F)F [Perfluoropropanoic acid]; settings: 2200 nM; in DMSO
Protocol: as §1

[12] = compound: O=P(O)(O)CCC(F)(F)C(F)(F)C(F)(F)C(F)(F)C(F)(F)C(F)(F)C(F)(F)C(F)(F)F [((Perfluorooctyl)ethyl)phosphonic acid]; settings: 2200 nM; in DMSO
Protocol: as §1

Perfluorobutanoic acid = compound: O=C(O)C(F)(F)C(F)(F)C(F)(F)F [Perfluorobutanoic acid]; settings: 2200 nM; in DMSO
Protocol: as §1

[13] = compound: OCC(F)(F)C(F)(F)C(F)(F)C(F)(F)C(F)(F)C(F)(F)C(F)(F)C(F)(F)C(F)(F)C(F)(F)C(F)(F)F [11:1 Fluorotelomer alcohol]; settings: in DMSO
Protocol: as §1

[14] = compound: FC(F)(F)C(F)(F)C(F)(F)C(F)(F)C(F)(F)C(F)(F)C(F)(F)I [1-Iodopentadecafluoroheptane]; settings: in DMSO
Protocol: as §1

Perfluoroundecanoic acid = compound: O=C(O)C(F)(F)C(F)(F)C(F)(F)C(F)(F)C(F)(F)C(F)(F)C(F)(F)C(F)(F)C(F)(F)C(F)(F)F [Perfluoroundecanoic acid]; settings: in DMSO
Protocol: as §1

Test System | level (log10) [1] | level (log10) [2] | level (log10) [3] | level (log10) ([4]; 2200 nM) | level (log10) ([4]; 6700 nM) | level (log10) ([4]; 20000 nM) | level (log10) ([4]; 60000 nM) | level (log10) [5] | level (log10) [6] | level (log10) [7] | level (log10) [8] | level (log10) [9] | level (log10) (Perfluorooctanamide) | level (log10) ([10]; 740 nM) | level (log10) ([10]; 2200 nM) | level (log10) ([10]; 6700 nM) | level (log10) ([10]; 20000 nM) | level (log10) [11] | level (log10) (Perfluoropropanoic acid) | level (log10) [12] | level (log10) (Perfluorobutanoic acid) | level (log10) ([13]; 370 nM) | level (log10) ([13]; 1100 nM) | level (log10) ([13]; 3300 nM) | level (log10) ([13]; 10000 nM) | level (log10) ([14]; 740 nM) | level (log10) ([14]; 2200 nM) | level (log10) ([14]; 6700 nM) | level (log10) ([14]; 20000 nM) | level (log10) (Perfluoroundecanoic acid; 740 nM) | level (log10) (Perfluoroundecanoic acid; 2200 nM)
BE3C:Keratin 8/18 | -0.012 ± 0.0057 | -0.001 ± 0.0071 | 0.007 ± 0.0057 | -0.0015 ± 0.028 | 0.0015 ± 0.019 | -0.0065 ± 0.012 | 0.002 ± 0.0028 | -0.004 ± 0.014 | -0.014 ± 0.0071 | 0 ± 0.0099 | 0 ± 0.0028 | -0.0165 ± 0.026 | -0.0105 ± 0.011 | -0.011 ± 0.02 | 0.0055 ± 0.013 | -0.005 ± 0.017 | -0.007 ± 0.0085 | 0.01 ± 0.02 | -0.0345 ± 0.0035 | -0.003 ± 0.0028 | -0.004 ± 0.0057 | 0.0145 ± 0.03 | 0.0065 ± 0.04 | -0.016 ± 0.035 | 0.018 ± 0.025 | 0.001 ± 0.0085 | -0.0045 ± 0.0064 | -0.0075 ± 0.011 | -0.012 | 0 ± 0.0028 | -0.0045 ± 0.00071
BE3C:MMP-1 | 0.0205 ± 0.023 | -0.0125 ± 0.026 | 0.02 ± 0.034 | 0.034 ± 0.098 | 0.0495 ± 0.06 | 0.034 ± 0.061 | 0.085 ± 0.0028 | 0.0175 ± 0.074 | -0.0215 ± 0.013 | -0.0115 ± 0.022 | -0.0175 ± 0.03 | 0.0145 ± 0.025 | 0.001 ± 0.0014 | 0.025 ± 0.024 | -0.0115 ± 0.0078 | 0.011 ± 0.0071 | 0.059 ± 0.031 | 0.0385 ± 0.077 | 0.013 ± 0.028 | 0.0635 ± 0.054 | 0.0315 ± 0.044 | -0.0065 ± 0.043 | -0.0275 ± 0.018 | -0.0685 ± 0.015 | -0.077 | -0.008 ± 0.0071 | -0.0115 ± 0.012 | -0.0205 ± 0.0078 | -0.011 | -0.0085 ± 0.013 | -0.011 ± 0.013
BE3C:MMP-9 | -0.008 ± 0.014 | 0.015 ± 0.072 | -0.0135 ± 0.0092 | 0.017 ± 0.033 | -0.018 ± 0.0042 | -0.008 ± 0.0028 | 0.007 ± 0.04 | -0.0075 ± 0.029 | -0.0205 ± 0.015 | 0.015 ± 0.0057 | 0.0145 ± 0.052 | 0.0105 ± 0.037 | -0.0235 ± 0.032 | 0.0005 ± 0.047 | -0.0045 ± 0.03 | -0.0045 ± 0.013 | -0.0045 ± 0.026 | -0.0095 ± 0.028 | -0.0135 ± 0.036 | 0.0125 ± 0.03 | -0.0095 ± 0.042 | -0.0215 ± 0.013 | -0.0475 ± 0.029 | -0.102 ± 0.0042 | -0.0735 ± 0.019 | -0.022 ± 0.0085 | 0.0005 ± 0.012 | -0.014 ± 0.035 | -0.0465 ± 0.015 | -0.0885 ± 0.044 | -0.043 ± 0.027
